Data taken from PubChem BioAssay AID2685 (National Center for Advancing Translational Sciences (NCATS), 2010).
The list shows a part of the results. The main result of the screen is listed elsewhere. These columns were measured beside it and carry no call. Most of these compounds were active or inconclusive in the main read-out, so they are no random draw. The note in brackets gives the kind of curve behind each potency; many fits are weak.

Test: qHTS Assay for Lipid Storage Modulators in Drosophila S3 Cells;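 for cell number change: cells counted by Cell Tracker Red CMTPX staining in the red channel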
Conditions: BODIPY lipid droplet fluorescence, 18-24 h; for cell number change: measured here: cell count max response, cells fed with added oleic acid
Summary of the method: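 Drosophila S3 cells loaded with oleic acid (400 uM, as added) and compounds at several concentrations; lipid droplets imaged by 488-nm laser-scanning cytometry, 500–530 nm intensity and object ratio to cell channel. Percent activity normalized to 20 uM Triacsin C.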

[1] = measured here: lipid fluorescence (Fed channel) AC50, cells fed with added oleic acid
[2] = measured here: cell number channel AC50, cells fed with added oleic acid

| SMILES | AC50 [1] | cell number change | AC50 [2] |
| --- | --- | --- | --- |
| O=C(c1cc2ccccc2cc1O)N1CCN(c2ccccc2O)CC1 | 0.231 µM [falling, full curve, poor fit] |  |  |
| c1ccc(-c2cncn2-c2ccccc2)cc1 | 29.1 µM [falling, single point] | -34.6% | 10.3 µM [falling, single point] |
| O=C(CN1CCN(Cc2ccc(F)cc2Cl)C1=O)NCCc1ccccc1 | 3.66 µM [rising, single point] | -12.3% |  |
| CCOC(=O)c1nn(-c2ccc(C)cc2)c(=O)c2c(N)scc12 |  | -41% | 18.4 µM [falling, single point] |
| CCc1cccc(NC(=O)C2CCCN(S(=O)(=O)c3cccs3)C2)c1 (stereo not given) | 4.11 µM [falling, full curve] | -8.56% |  |
| CCOC(=O)c1ccc(NS(=O)C23CC4CC(CC(C4)C2)C3)cc1 (stereo not given) |  |  | 1.03 µM [rising, partial curve] |
| CN(C)CCNC(=O)Nc1ccc(F)cc1F |  | 0.828% |  |
| O=C(Cn1cccc1)NC1CCCCCC1 | 29.1 µM [rising, single point] | -5.17% |  |
| CC(C)NCC(O)COCc1ccc(Cl)cc1 (stereo not given) | 1.64 µM [falling, full curve, poor fit] | -7.2% |  |
| Cc1cc(NC(=O)COC(=O)c2ccc([N+](=O)[O-])cc2Cl)no1 | 6.51 µM [rising, full curve, poor fit] | 31.8% | 6.51 µM [rising, full curve, poor fit] |
| CN(Cc1ccc(N(C)C)cc1)C(=O)c1cc2ccccc2o1 | 29.1 µM [falling, single point] | -10.9% |  |
| CC1(C)CN(c2cccc(C#N)c2)C1=O |  | -51.3% |  |
| CC(C)C(NC(=O)CN1C(=O)c2ccccc2C1=O)c1ccccc1 (stereo not given) | 1.16 µM [rising, full curve, poor fit] | 7.8% |  |
| COC(=O)CN1C(=O)C(C)=C(c2ccc(C)cc2)S1(=O)=O | 29.1 µM [rising, single point] | -21.3% |  |
| CN(C)C(=O)CN1C(=O)C2CCCCN2C(=O)c2ccccc21 (stereo not given) | 29.1 µM [falling, single point] | -30.7% | 29.1 µM [falling, single point] |
| CC(=O)Nc1nc2c(s1)CCc1ccccc1-2 | 32.6 µM [falling, single point] | -29.8% |  |
| COC(=O)c1cc(NCc2c(F)cccc2Cl)ccc1N1CCOCC1 | 4.11 µM [falling, single point] | -5.79% |  |
| O=C(NC1CCS(=O)(=O)C1)c1cccc(S(=O)(=O)N2CCCCC2)c1 (stereo not given) | 0.00461 µM [falling, full curve, poor fit] | 6.09% |  |

Some of the entries so far, in CSV form.
SMILES,AC50 [1],cell number change,AC50 [2]
CCOC(=O)c1nn(-c2ccc(C)cc2)c(=O)c2c(N)scc12,,-41%,"18.4 µM [falling, single point]"
CCc1cccc(NC(=O)C2CCCN(S(=O)(=O)c3cccs3)C2)c1 (stereo not given),"4.11 µM [falling, full curve]",-8.56%,
